Experimental findings from PubChem BioAssay AID330 (DTP/NCI, 2004) are described below.

In the assay the test system is P388 leukemia ip, CD2F1 mice, survival T/C. The assay is described as follows: NCI In Vivo Anticancer Drug Screen. Data for tumor model P388 Leukemia (intraperitoneal) in CD2F1 (CDF1) mice. The note with it: T/C endpoint: median survival time, higher T/C = longer survival.

The list does not hold the whole screen: it gathers some chemical classes. Not every dose and run of a compound is shown. T/C gives the treated animals as a percentage of the vehicle group. Where survival is the endpoint, this PubChem deposit counts one and a half times the control or more as active, and values a quarter to a half above the control carry no call in these data; other NCI protocols may use other cut-offs. Schedule codes are those of the source, read here as Q, the interval in days (D) or hours (H), X, the number of doses. Some T/C values are marked as having no survivor count here; that says nothing about deaths at the dose. Some entries hold several experiments; the results are listed from low to high.

Consider `CC1CCOC(=O)/C=C/C=C/C(=O)OC2CC3OC4C=C(CO)CCC4(COC(=O)C1O)C2(C)C31CO1` (stereo not given), for which the T/C is, setting by setting: (dose: 0.25 mg/kg/injection, schedule: Q01DX009 (ip), vehicle: saline + alcohol) 158 % of control [survivor count not shown]; (dose: 0.5 mg/kg/injection, schedule: Q01DX009 (ip), vehicle: saline + alcohol) 154 % of control [survivor count not shown]; (dose: 1.0 mg/kg/injection, schedule: Q01DX009 (ip), vehicle: saline + alcohol, evaluated on day 30) 165 % of control [survivor count not shown]; (dose: 1.0 mg/kg/injection, schedule: Q01DX009 (ip), vehicle: saline + alcohol, evaluated on day 35) 190 % of control [survivor count not shown]; (dose: 2.0 mg/kg/injection, schedule: Q01DX009 (ip), vehicle: saline + alcohol, evaluated on day 30) 165 % of control [survivor count not shown]; (dose: 2.0 mg/kg/injection, schedule: Q01DX009 (ip), vehicle: saline + alcohol, evaluated on day 35) 169 % of control [survivor count not shown]. In addition, the T/C (dose: 4.0 mg/kg/injection, schedule: Q01DX009 (ip), vehicle: saline + alcohol) was 252 % of control [survivor count not shown].

Consider `CC1=CC2OC3CC4OC(=O)/C=C\C=C/C5(C(C)O)OCC/C(=C/C(=O)OCC2(CC1)C4(C)C31CO1)C5O` (stereo not given), for which the T/C is 125 % of control [survivor count not shown] (dose: 0.25 mg/kg/injection, schedule: Q01DX005 (ip), vehicle: distilled water + Tween-80 + alcohol); 138 [survivor count not shown] and 144 % of control [survivor count not shown] (dose: 0.5 mg/kg/injection, schedule: Q01DX005 (ip), vehicle: distilled water + Tween-80 + alcohol); 152 [survivor count not shown] and 177 % of control [survivor count not shown] (dose: 1.0 mg/kg/injection, schedule: Q01DX005 (ip), vehicle: distilled water + Tween-80 + alcohol); 171 [survivor count not shown] and 198 % of control [survivor count not shown] (dose: 2.0 mg/kg/injection, schedule: Q01DX005 (ip), vehicle: distilled water + Tween-80 + alcohol).

Take `CNC1C2OC3C=C(C)CCC3(COC(C)=O)C(C)(C1O)C21CO1` (stereo not given): the T/C is, setting by setting: (dose: 2.5 mg/kg/injection, schedule: Q04DX002 (ip), vehicle: water) 119 % of control [survivor count not shown]; (dose: 5.0 mg/kg/injection, schedule: Q04DX002 (ip), vehicle: water) 126 [survivor count not shown] and 128 % of control [survivor count not shown]; (dose: 10.0 mg/kg/injection, schedule: Q04DX002 (ip), vehicle: water) 123 [survivor count not shown] and 135 % of control [survivor count not shown]; (dose: 20.0 mg/kg/injection, schedule: Q04DX002 (ip), vehicle: water) 135 [survivor count not shown] and 136 % of control [survivor count not shown]; (dose: 40.0 mg/kg/injection, schedule: Q04DX002 (ip), vehicle: water) 144 % of control [survivor count not shown].

Turning to `CC1=CC2OC3CC4OC(=O)/C=C/C=C/C(C(C)O)OCCC(C)C(O)C(=O)OCC2(CC1O)C4(C)C31CO1` (stereo not given), the T/C (dose: 0.15 mg/kg/injection, schedule: Q01DX009 (ip), vehicle: saline + alcohol) is 126 % of control [survivor count not shown]; the T/C (dose: 0.31 mg/kg/injection, schedule: Q01DX009 (ip), vehicle: saline + alcohol) is 138 [survivor count not shown], 144 [survivor count not shown], 150 % of control [survivor count not shown]; the T/C (dose: 0.62 mg/kg/injection, schedule: Q01DX009 (ip), vehicle: saline + alcohol) was 146 [survivor count not shown], 161 [survivor count not shown], 164 % of control [survivor count not shown]; the T/C (dose: 1.25 mg/kg/injection, schedule: Q01DX009 (ip), vehicle: saline + alcohol) was 146 [survivor count not shown], 157 [survivor count not shown], 183 % of control [survivor count not shown]; the T/C (dose: 2.5 mg/kg/injection, schedule: Q01DX009 (ip), vehicle: saline + alcohol) is 148 [survivor count not shown] and 161 % of control [survivor count not shown]; the T/C (dose: 5.0 mg/kg/injection, schedule: Q01DX009 (ip), vehicle: saline + alcohol) was 93 [survivor count not shown] and 250 % of control [survivor count not shown]. The T/C was 111 % of control [survivor count not shown] (dose: 5.0 micrograms/kg/injection, schedule: Q01DX009 (ip), vehicle: saline + alcohol); 110 [survivor count not shown] and 119 % of control [survivor count not shown] (dose: 10.0 micrograms/kg/injection, schedule: Q01DX009 (ip), vehicle: saline + alcohol); 114 [survivor count not shown] and 130 % of control [survivor count not shown] (dose: 20.0 micrograms/kg/injection, schedule: Q01DX009 (ip), vehicle: saline + alcohol); 124 [survivor count not shown] and 139 % of control [survivor count not shown] (dose: 40.0 micrograms/kg/injection, schedule: Q01DX009 (ip), vehicle: saline + alcohol); 133 [survivor count not shown] and 146 % of control [survivor count not shown] (dose: 80.0 micrograms/kg/injection, schedule: Q01DX009 (ip), vehicle: saline + alcohol); 147 % of control [survivor count not shown] (dose: 160.0 micrograms/kg/injection, schedule: Q01DX009 (ip), vehicle: saline + alcohol).

Take `CC1=CC2OC3CC(OC(=O)/C=C/C=C/C(OCCC4=CC(=O)OC4)C(C)O)C(C)(C2(CO)CC1)C31CO1` (stereo not given): the T/C (dose: 1.0 mg/kg/injection, schedule: Q01DX009 (ip), vehicle: distilled water + Tween-80) was 107 % of control [survivor count not shown]; the T/C (dose: 2.0 mg/kg/injection, schedule: Q01DX009 (ip), vehicle: distilled water + Tween-80) was 104 % of control [survivor count not shown]; the T/C (dose: 2.0 mg/kg/injection, schedule: Q01DX009 (ip), vehicle: water) was 104 % of control [survivor count not shown]; the T/C (dose: 4.0 mg/kg/injection, schedule: Q01DX009 (ip), vehicle: distilled water + Tween-80) was 104 % of control [survivor count not shown]; the T/C (dose: 4.0 mg/kg/injection, schedule: Q01DX009 (ip), vehicle: water) is 105 % of control [survivor count not shown]; the T/C (dose: 8.0 mg/kg/injection, schedule: Q01DX009 (ip), vehicle: distilled water + Tween-80) is 122 % of control [survivor count not shown]. Besides, the T/C (dose: 8.0 mg/kg/injection, schedule: Q01DX009 (ip), vehicle: water) was 107 % of control [survivor count not shown]; the T/C (dose: 16.0 mg/kg/injection, schedule: Q01DX009 (ip), vehicle: distilled water + Tween-80) is 116 % of control [survivor count not shown]; the T/C (dose: 16.0 mg/kg/injection, schedule: Q01DX009 (ip), vehicle: water) is 125 % of control [survivor count not shown]; the T/C (dose: 32.0 mg/kg/injection, schedule: Q01DX009 (ip), vehicle: distilled water + Tween-80) is 120 % of control [survivor count not shown]; the T/C (dose: 32.0 mg/kg/injection, schedule: Q01DX009 (ip), vehicle: water) was 100 % of control [survivor count not shown]; the T/C (dose: 64.0 mg/kg/injection, schedule: Q01DX009 (ip), vehicle: water) was 163 % of control [survivor count not shown].

With `CC1=CC2OC3CC4OC(=O)/C=C/C=C/C(=O)OCC/C(CO)=C/C(=O)OCC2(CC1)C4(C)C31CO1` (stereo not given), the T/C is 116 % of control [survivor count not shown] (dose: 0.31 mg/kg/injection, schedule: Q04DX002 (ip), vehicle: distilled water + Tween-80 + alcohol); 123 % of control [survivor count not shown] (dose: 0.62 mg/kg/injection, schedule: Q04DX002 (ip), vehicle: distilled water + Tween-80 + alcohol); 125 [survivor count not shown] and 129 % of control [survivor count not shown] (dose: 1.25 mg/kg/injection, schedule: Q04DX002 (ip), vehicle: distilled water + Tween-80 + alcohol); 122 [survivor count not shown] and 129 % of control [survivor count not shown] (dose: 2.5 mg/kg/injection, schedule: Q04DX002 (ip), vehicle: distilled water + Tween-80 + alcohol); 122 % of control [survivor count not shown] (dose: 5.0 mg/kg/injection, schedule: Q04DX002 (ip), vehicle: distilled water + Tween-80 + alcohol).
